No constants are given. Whether binding was seen depends on the method and setting. For some assays here: In cells and extracts the contact can be indirect. Some results given as binding are weak or reduced against the parent protein; the word gives no strength. Where a sequence is shown, tags or fusion partners need not be part of it.
T1: RopGEF1 (yeast two-hybrid bait fusion) (Arabidopsis thaliana) (UniProt Q93ZY2)
T1 sequence: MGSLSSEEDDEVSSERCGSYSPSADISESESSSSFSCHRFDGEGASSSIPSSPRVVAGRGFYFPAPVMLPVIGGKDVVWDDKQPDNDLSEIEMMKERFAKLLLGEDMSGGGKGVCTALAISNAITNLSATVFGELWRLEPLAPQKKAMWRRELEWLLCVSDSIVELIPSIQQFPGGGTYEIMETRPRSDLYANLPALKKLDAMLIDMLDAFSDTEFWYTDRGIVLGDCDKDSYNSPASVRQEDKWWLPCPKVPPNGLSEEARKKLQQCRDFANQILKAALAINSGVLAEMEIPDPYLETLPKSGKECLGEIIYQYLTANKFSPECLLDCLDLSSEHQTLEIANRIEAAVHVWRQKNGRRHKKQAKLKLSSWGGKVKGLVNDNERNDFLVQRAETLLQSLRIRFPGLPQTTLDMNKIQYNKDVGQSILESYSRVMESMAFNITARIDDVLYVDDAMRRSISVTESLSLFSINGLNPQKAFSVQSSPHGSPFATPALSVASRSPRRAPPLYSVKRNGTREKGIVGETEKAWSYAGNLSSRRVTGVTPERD

Sequences of proteins named here, by UniProt entry; tags and fusion partners are left off.
UniProt P49597: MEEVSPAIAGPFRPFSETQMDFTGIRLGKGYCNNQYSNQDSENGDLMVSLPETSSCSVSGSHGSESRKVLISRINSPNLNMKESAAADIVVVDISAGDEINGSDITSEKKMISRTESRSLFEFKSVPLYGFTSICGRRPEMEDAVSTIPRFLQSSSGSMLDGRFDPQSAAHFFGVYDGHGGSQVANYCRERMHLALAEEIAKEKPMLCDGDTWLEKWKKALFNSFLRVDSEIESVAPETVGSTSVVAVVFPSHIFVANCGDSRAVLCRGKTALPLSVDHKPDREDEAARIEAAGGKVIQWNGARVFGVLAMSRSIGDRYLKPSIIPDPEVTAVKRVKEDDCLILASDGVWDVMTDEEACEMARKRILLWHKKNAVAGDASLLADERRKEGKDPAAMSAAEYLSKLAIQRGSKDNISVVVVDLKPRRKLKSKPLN

T2: Flag-GFP-GEF1 (Arabidopsis thaliana) (UniProt Q93ZY2)
T2 sequence: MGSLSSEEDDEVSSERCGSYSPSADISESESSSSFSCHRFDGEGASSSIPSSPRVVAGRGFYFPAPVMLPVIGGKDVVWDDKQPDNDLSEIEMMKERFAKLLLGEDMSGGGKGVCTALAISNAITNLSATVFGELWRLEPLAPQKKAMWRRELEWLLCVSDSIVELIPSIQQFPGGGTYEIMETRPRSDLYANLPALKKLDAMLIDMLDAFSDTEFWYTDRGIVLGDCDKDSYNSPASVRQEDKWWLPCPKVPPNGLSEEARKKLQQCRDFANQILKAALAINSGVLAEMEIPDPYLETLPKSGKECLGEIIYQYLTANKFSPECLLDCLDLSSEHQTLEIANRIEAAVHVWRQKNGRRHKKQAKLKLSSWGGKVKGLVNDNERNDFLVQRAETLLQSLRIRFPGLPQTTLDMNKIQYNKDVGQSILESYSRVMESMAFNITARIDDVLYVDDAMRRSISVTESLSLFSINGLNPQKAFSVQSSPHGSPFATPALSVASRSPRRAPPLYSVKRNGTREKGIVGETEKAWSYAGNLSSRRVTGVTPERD


Assays:
[1] = target: T1, RopGEF1 (yeast two-hybrid bait fusion) (Arabidopsis thaliana); assay: two-hybrid; yeast pJ69-4A; growth on -L-W-H with 5 mM 3-AT for 6 d
[2] = target: T2, Flag-GFP-GEF1 (Arabidopsis thaliana); assay: co-IP; Flag-GFP-GEF1 and myc-mCherry-PP2C co-expressed in N. benthamiana leaves; lysate precipitated with anti-flag magnetic beads, 4 h at 4°C; blots with anti-flag and anti-myc
[3] = target: ABI1 (yeast two-hybrid fusion) (Arabidopsis thaliana) (UniProt P49597); assay: two-hybrid; yeast PJ69-4A, USER-modified pGBT9 and pGADGH; growth on SD-L-W-H with 3 mM 3-AT for 6 d; ABI1/PYL1 without ABA

Row | binding [1] | binding [2] | Binder | also measured
1 | binds | – | AHG1 (yeast two-hybrid fusion) (enzyme, UniProt Q9FLI3 1-416) MTEIYRTISTGRGDDVSPTKCRERRRRRIEMRRQAAVFGEPSSSRNRDRTDMEVYSSFDVPLRKQARRSEIGGLPADIGGFLAPPAASSCQKSEAPVWKGEETEDEPLYGIVSVMGRSRKMEDSVTVKPNLCKPEVNRQRPVHFFAVYDGHGGSQVSTLCSTTMHTFVKEELEQNLEEEEEGSENDVVERKWRGVMKRSFKRMDEMATSTCVCGTSVPLCNCDPREAAISGSTAVTAVLTHDHIIVANTGDSRAVLCRNGMAIPLSNDHKPDRPDERARIEAAGGRVLVVDGARVEGILATSRAIGDRYLKPMVAWEPEVTFMRRESGDECLVLASDGLWDVLSSQLACDIARFCLREETPSSLDLNRMAQEDDNDGEQNPSRSVLAATLLTRLALGRQSSDNISVVVIDLKNSSQ | –
2 | – | binds | myc-mCherry-AHG1 (enzyme, UniProt Q9FLI3 1-416) MTEIYRTISTGRGDDVSPTKCRERRRRRIEMRRQAAVFGEPSSSRNRDRTDMEVYSSFDVPLRKQARRSEIGGLPADIGGFLAPPAASSCQKSEAPVWKGEETEDEPLYGIVSVMGRSRKMEDSVTVKPNLCKPEVNRQRPVHFFAVYDGHGGSQVSTLCSTTMHTFVKEELEQNLEEEEEGSENDVVERKWRGVMKRSFKRMDEMATSTCVCGTSVPLCNCDPREAAISGSTAVTAVLTHDHIIVANTGDSRAVLCRNGMAIPLSNDHKPDRPDERARIEAAGGRVLVVDGARVEGILATSRAIGDRYLKPMVAWEPEVTFMRRESGDECLVLASDGLWDVLSSQLACDIARFCLREETPSSLDLNRMAQEDDNDGEQNPSRSVLAATLLTRLALGRQSSDNISVVVIDLKNSSQ | –
3 | binds | – | HAI1 (yeast two-hybrid fusion) (enzyme, UniProt Q9FIF5 1-413) MAEICYENETMMIETTATVVKKATTTTRRRERSSSQAARRRRMEIRRFKFVSGEQEPVFVDGDLQRRRRRESTVAASTSTVFYETAKEVVVLCESLSSTVVALPDPEAYPKYGVASVCGRRREMEDAVAVHPFFSRHQTEYSSTGFHYCGVYDGHGCSHVAMKCRERLHELVREEFEADADWEKSMARSFTRMDMEVVALNADGAAKCRCELQRPDCDAVGSTAVVSVLTPEKIIVANCGDSRAVLCRNGKAIALSSDHKPDRPDELDRIQAAGGRVIYWDGPRVLGVLAMSRAIGDNYLKPYVISRPEVTVTDRANGDDFLILASDGLWDVVSNETACSVVRMCLRGKVNGQVSSSPEREMTGVGAGNVVVGGGDLPDKACEEASLLLTRLALARQSSDNVSVVVVDLRRDT | –
4 | – | binds | myc-mCherry-HAI1 (enzyme, UniProt Q9FIF5 1-413) MAEICYENETMMIETTATVVKKATTTTRRRERSSSQAARRRRMEIRRFKFVSGEQEPVFVDGDLQRRRRRESTVAASTSTVFYETAKEVVVLCESLSSTVVALPDPEAYPKYGVASVCGRRREMEDAVAVHPFFSRHQTEYSSTGFHYCGVYDGHGCSHVAMKCRERLHELVREEFEADADWEKSMARSFTRMDMEVVALNADGAAKCRCELQRPDCDAVGSTAVVSVLTPEKIIVANCGDSRAVLCRNGKAIALSSDHKPDRPDELDRIQAAGGRVIYWDGPRVLGVLAMSRAIGDNYLKPYVISRPEVTVTDRANGDDFLILASDGLWDVVSNETACSVVRMCLRGKVNGQVSSSPEREMTGVGAGNVVVGGGDLPDKACEEASLLLTRLALARQSSDNVSVVVVDLRRDT | –
5 | – | – | RCAR1/PYL9 (yeast two-hybrid fusion) (receptor, UniProt Q84MC7 1-187) MMDGVEGGTAMYGGLETVQYVRTHHQHLCRENQCTSALVKHIKAPLHLVWSLVRRFDQPQKYKPFVSRCTVIGDPEIGSLREVNVKSGLPATTSTERLELLDDEEHILGIKIIGGDHRLKNYSSILTVHPEIIEGRAGTMVIESFVVDVPQGNTKDETCYFVEALIRCNLKSLADVSERLASQDITQ | binding [3]: binds

From article PMC4871701
